PubChem BioAssay AID504764 – Drosophila RNAi Screening Center, 2011
The screen tested about 22,000 reagents; this is an unselected part of those with a known target gene and a result. Over the whole deposit, 403 (1.9%) were called active. 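Unnormalised raw counts per well; ratio z-scores behind the hit calls and whether each hit raises or lowers signal are not deposited.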 The numbers tell different reagents against one gene apart. Reagent sequences are not shown. The record does not give: the amount of reagent.

Assay: 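Genome-wide screen for regulators of Notch-driven gene expression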 (primary screen)
Cell system: Drosophila Kc167 cells
Reagents: long dsRNA against Drosophila genes
Timing: about 5 days (4 days dsRNA, then 24 h after transfection)
Challenge: transfection of constitutively active membrane-tethered Notch lacking the extracellular domain, read 24 h later
Detection: 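Firefly luciferase from an E(spl)m3 reporter with active Notch, plus control-promoter and uninduced reporter wells for normalisation; unnormalised counts, duplicate wells a and b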
Reading the numbers: induced reporter light, run 1, well a and induced reporter light, run 1, well b: higher = more light from the Notch target reporter with active Notch; control promoter light, run 1, well a and control promoter light, run 1, well b: higher = more light from the viral control promoter (cell number, transfection, viability); uninduced reporter light, run 1, well a: higher = more light from the Notch target reporter without active Notch
Rule for the call: 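Hit if the duplicate-averaged log2 ratio of induced to control-promoter light gives a plate-wise z beyond ±2, or induced to uninduced beyond ±1.8; weak-control or discordant-duplicate wells dropped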
Meaning of the calls: active = modifier hit (raised or lowered Notch signal); inactive = not a hit

no.	gene	reagent no.	induced reporter light, run 1, well a	induced reporter light, run 1, well b	control promoter light, run 1, well a	control promoter light, run 1, well b	uninduced reporter light, run 1, well a	Call
1	CG7049	1	50265	44245	67175	64760	3170	inactive
2	Pgant8	1	1.68e5	1.56e5	2.14e5	2.01e5	8840	inactive
3	Cyp318a1	1	1.40e5	1.23e5	2.32e5	2.22e5	9440	inactive
4	Snm1	1	1.14e5	1.59e5	89860	93390	11110	inactive
5	B4	1	2.38e5	2.09e5	2.10e5	2.10e5	17565	inactive
6	B4	2	1.56e5	1.56e5	1.36e5	1.39e5	11815	inactive
7	Nepl7	1	1.43e5	1.62e5	1.43e5	1.61e5	11440	inactive
8	PI31	1	1.12e5	1.15e5	90120	99090	9392	inactive
9	eff	1	1.96e5	2.14e5	2.43e5	2.24e5	18065	inactive
10	bif	1	76340	64195	1.06e5	55670	4010	inactive
11	bif	2	2.00e5	1.57e5	1.49e5	1.18e5	13260	active
12	CG1271	1	1.03e5	1.18e5	1.37e5	38565	14185	inactive
13	CG8490	1	2.10e5	1.49e5	1.20e5	1.40e5	13705	inactive
14	RNASEK	1						inactive
15	CG9967	1	2.54e5	2.44e5	2.19e5	2.10e5	21340	inactive
16	RpS14a	1	22825	17390	23075	23355	1125	inactive
17	CG10949	1	2.68e5	3.22e5	3.18e5	3.19e5	21070	inactive
18	CG43773	1	96495	72145	27675	24445	13280	active
19	CG43773	2	1.76e5	1.20e5	1.68e5	1.67e5	9840	inactive
20	Alg1	1	2.22e5	1.83e5	2.29e5	2.38e5	18165	inactive
21	Inx7	1	1.46e5	1.38e5	2.84e5	2.29e5	9760	inactive
22	CG6179	1	1.28e5	1.30e5	1.40e5	1.74e5	15150	inactive
23	Mip	1	40650	34805	13242	18830	6060	inactive
24	dare	1	1.14e5	1.11e5	1.36e5	1.04e5	10730	inactive
25	CG11113	1	1.88e5	1.77e5	2.01e5	2.25e5	17335	inactive
26	CG10137	1	60510	59470	42045	47720	4250	inactive
27	CG10137	2	24885	23285	23050	20050	1805	inactive
28	CG3655	1	68265	69695	93050	81740	6715	inactive
29	CG3655	2	1.24e5	1.30e5	1.97e5	1.65e5	7555	inactive
30	CG3655	3	84800	1.09e5	1.35e5	1.57e5	6565	inactive
31	CG15617	1	1.69e5	85610	1.12e5	1.62e5	14690	inactive
32	Droj2	1	1.30e5	1.60e5	77400	60795	7460	inactive
33	CG7304	1	1.83e5	1.39e5	1.74e5	1.86e5	8305	inactive
34	Rh5	1	2.86e5	2.38e5	1.71e5	2.12e5	16810	inactive
35	CG30095	1	1.04e5	83210	1.06e5	1.39e5	9125	inactive
36	RpL6	1	77115	82275	1.02e5	1.05e5	5145	inactive
37	RpL6	2						active
38	Mvb12	1	72015	62870	87680	54585	10985	inactive
39	Nhe3	1	1.58e5	1.49e5	1.60e5	1.58e5	8005	inactive
40	h-cup	1	1.06e5	88025	1.11e5	99425	8065	inactive
41	Vps13D	1	1.19e5	1.23e5	1.69e5	1.52e5	9465	inactive
42	Vps13D	2	1.46e5	1.44e5	2.09e5	2.03e5	9020	inactive
43	ato	1	75985	1.02e5	81995	73175	7425	inactive
44	Dic1	1	1.31e5	1.46e5	1.21e5	1.12e5	11870	inactive
45	CG32638	1	84130	62780	67090	63810	5485	inactive
46	Obp19a	1	98195	1.02e5	88180	1.24e5	11790	inactive
47	l(3)mbt	1	73945	68260	64500	69815	10735	inactive
48	sa	1	1.38e5	1.05e5	1.09e5	98165	8800	inactive
49	Arp8	1	1.87e5	1.33e5	1.03e5	79120	9110	inactive
50	Ifrd1	1	3.16e5	2.21e5	3.31e5	2.82e5	14590	inactive
51	Ifrd1	2	1.76e5	2.14e5	2.61e5	2.56e5	12625	inactive
52	Tsp47F	1	78810	78230	1.33e5	1.10e5	9265	inactive
53	hui	1	1.12e5	88260	60930	62530	8155	active
54	srp	1	1.65e5	1.31e5	1.39e5	1.83e5	9645	inactive
55	srp	2	11175	12632	10680	11780	2205	inactive
56	Cpr65Av	1	2.03e5	2.09e5	3.34e5	2.99e5	9760	inactive
57	Atu	1	1.52e5	1.19e5	94405	1.00e5	10080	inactive
58	CG12814	1	1.75e5	1.33e5	1.04e5	1.02e5	9780	inactive
59	CG12814	2	90130	70340	70150	48360	5015	inactive
60	CG13050	1	1.75e5	1.59e5	2.05e5	2.73e5	9125	inactive
61	Hacd2	1	2.10e5	2.09e5	1.91e5	1.84e5	18460	inactive
62	CG8708	1	1.80e5	1.36e5	1.82e5	1.49e5	12050	inactive
63	CG43689	1	6420	6760	9825	11328	3440	inactive
64	EloA	1	80290	95625	1.08e5	1.02e5	10400	inactive

Reprinted from the listing for reference:
no.	gene	reagent no.	induced reporter light, run 1, well a	induced reporter light, run 1, well b	control promoter light, run 1, well a	control promoter light, run 1, well b	uninduced reporter light, run 1, well a	Call
20	Alg1	1	2.22e5	1.83e5	2.29e5	2.38e5	18165	inactive
21	Inx7	1	1.46e5	1.38e5	2.84e5	2.29e5	9760	inactive
22	CG6179	1	1.28e5	1.30e5	1.40e5	1.74e5	15150	inactive
23	Mip	1	40650	34805	13242	18830	6060	inactive
24	dare	1	1.14e5	1.11e5	1.36e5	1.04e5	10730	inactive
25	CG11113	1	1.88e5	1.77e5	2.01e5	2.25e5	17335	inactive
26	CG10137	1	60510	59470	42045	47720	4250	inactive
